Source: patent publication US8853242B2, “Nitrogenous-ring acylguanidine derivative” (Astellas Pharma Inc., priority 2009, dated 2014)
For at least one compound, name, drawing or mass did not settle the structure.

Experiments:
Male ddY mouse = experiment: Spontaneous alternation behavior (Y-maze) induced by Scoporamine in mice; format: in vivo; details: oral dose 0.0003 mg/kg, Scoporamine 0.5 mg/kg i.p.
Experimental: The improvement effect of compound of formula (I) on cognitive impairment of dementia and schizophrenia was evaluated by a known test method as a model with short-term learning disorder.
After 10 to 30 minutes from oral administration of the test compound, 0.5 mg/kg of Scoporamine or 0.15 mg/kg of MK-801 (in the case of a normal group, physiological saline was administered) was intraperitoneally administered. After 20 minutes, the test was conducted. In addition, solvent (vehicle) was orally administered to the normal group (to which physiological saline was administered) and to the control group (to which 0.5 mg/kg of Scoporamine or 0.15 mg/kg of MK-801 was administered), when the test compound was administered.
A mouse was placed at the end of one arm of a Y-maze having arms with the same length in three directions, and then allowed to explore freely and the number of arm entries was counted for 8 minutes. Further, spontaneous alternation behavior was defined as entries into all three different arms on consecutive occasions, and the ratio of the number of instances of this behavior to the total number of the entries was calculated as an alternation rate by the following formula: Alternation rate(%)=Number of spontaneous alternation behaviors/(Total number of entries−2)×100. […]

Male ICR mouse = experiment: Hyperactivity (quantity of motion) induced by MK-801 in mice; format: in vivo; details: oral dose 0.01 mg/kg; MK-801 0.3 mg/kg; P<0.05
Experimental: The improvement effect of compound of formula (I) on schizophrenia was evaluated by measuring the quantity of motion inhibited by administration of the compound in a model in which the symptoms were induced by methamphetamine (hereinafter abbreviated as MAP) and MK-801.
The animal was taken out of a breeding cage, orally administered with a test compound, and then placed into a cage for breeding. After 30 minutes, the animal was put into a cage for measurement, and the quantity of motion with the test compound alone was measured. Further, after 30 to 90 minutes, the animal was taken out, and subcutaneously or intraperitoneally administered with a drug for increasing the quantity of motion (MAP; 1.5 mg/kg or MK-801; 0.3 mg/kg, dissolved in physiological saline, respectively). Then, the quantity of motion for a certain period of time (60 minutes) was measured using a device for measuring the quantity of motion (CompACT AMS manufactured by Muromachi Kikai Co., Ltd.) by means of an infrared sensor.
For a normal mouse (a mouse administered with physiological saline) and a mouse administered with a drug for increasing the quantity of motion, a Student's T test was performed for evaluation for each interval. For a group administered with the test compound, an assay was performed using a solvent (vehicle) group and a Dunnett's T test. […]

Compound: NC(N)=NC(=O)c1ccc2c(C(F)F)cnc(-c3c(F)cccc3F)c2c1 [Example 187]
- spontaneous alternation behavior induced by Scoporamine (Male ddY mouse): significantly inhibited
- hyperactivity induced by MK-801 (Male ICR mouse): significantly inhibited
